Measurements reported in PubChem BioAssay AID328 (DTP/NCI, 2004).
The list is a part of this screen's results and no random one: it gathers tests that were run many times, whatever their T/C, doses with no T/C, and many T/C values between a quarter and a half above the control. Other doses and runs of a compound stand elsewhere. T/C: endpoint of the treated group in % of that of the vehicle group. Some entries give survivors of the animals treated and no T/C: the source holds a T/C of zero for them, seemingly a mark for toxic or unscored doses. Some survivor counts are full or nearly so, which does not show that the dose was tolerated: survival well below the control is almost never listed, so the zero probably covers shortened survival too. Survivors were counted at the toxicity check, usually on the fifth day, unless a day is given; later deaths do not show. Schedule codes are those of the source, taken here to give the interval after Q, in days (D) or hours (H), and the number of doses after X. Additions like (4×) count equal records among those shown. Some entries were tested several times; their values stand side by side, smallest first. Where survival is the endpoint, the PubChem record calls one and a half times the control and up active, and a quarter to a half above the control has no call in these data; cut-offs in other NCI protocols can differ. Some T/C values carry the count of animals alive at the toxicity check (mostly the fifth day); where none is given, no animal had died by that day.

Tested on: BDF1 mice, P388 leukemia ip, median survival T/C
Assay: NCI In Vivo Anticancer Drug Screen. Data for tumor model P388 Leukemia (intraperitoneal) in B6D2F1 (BDF1) mice
Conditions: T/C endpoint: median survival time, higher T/C = longer survival
Summary of the method: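 T/C = treated-group survival ÷ vehicle-control survival; tumour transplanted into mice before dosing.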

[1] = dose: 32.0 mg/kg/injection, schedule: Q01DX001 (oral), vehicle: saline

## COC(=O)[C@@H](O)[C@](O)(CCC(C)C)C(=O)O[C@@H]1C(OC)=C[C@]23CCCN2CCc2cc4c(cc2[C@H]13)OCO4
dose: 0.75 mg/kg/injection, schedule: Q01DX010 (ip), vehicle: saline
  T/C: 140 % of control
dose: 0.94 mg/kg/injection, schedule: Q01DX009 (ip), vehicle: saline
  T/C: 125 % of control
dose: 1.0 mg/kg/injection, schedule: Q03HX008 (ip), vehicle: saline
  T/C: 144 % of control
dose: 1.5 mg/kg/injection, schedule: Q01DX010 (ip), vehicle: saline
  T/C: 136 % of control
dose: 1.88 mg/kg/injection, schedule: Q01DX009 (ip), vehicle: saline
  T/C: 129 % of control
dose: 2.0 mg/kg/injection, schedule: Q01DX006 (iv), vehicle: saline
  T/C: 133 % of control
dose: 2.0 mg/kg/injection, schedule: Q01DX009 (ip), vehicle: saline, evaluated on day 30
  T/C: 127 % of control
dose: 2.0 mg/kg/injection, schedule: Q01DX009 (ip), vehicle: saline, evaluated on day 60
  T/C: 144 % of control
dose: 2.0 mg/kg/injection, schedule: Q01DX009 (sc), vehicle: saline
  T/C: 144 % of control
dose: 2.0 mg/kg/injection, schedule: Q03HX016 (ip), vehicle: saline
  T/C: 125 % of control
dose: 3.0 mg/kg/injection, schedule: Q01DX009 (ip), vehicle: saline
  T/C: 136 % of control
dose: 3.0 mg/kg/injection, schedule: Q01DX010 (ip), vehicle: saline
  T/C: 139 % of control
dose: 3.75 mg/kg/injection, schedule: Q01DX009 (ip), vehicle: saline
  T/C: 133 % of control
dose: 4.0 mg/kg/injection, schedule: Q01DX009 (ip), vehicle: saline, evaluated on day 30
  T/C: 154 and 200 % of control
dose: 4.0 mg/kg/injection, schedule: Q01DX009 (ip), vehicle: saline, evaluated on day 60
  T/C: 130 [9 of 10 alive] and 188 % of control
dose: 4.0 mg/kg/injection, schedule: Q01DX009 (oral), vehicle: saline
  T/C: 135 % of control
dose: 4.0 mg/kg/injection, schedule: Q03HX016 (ip), vehicle: saline
  survivor count: 6 of 10
dose: 4.0 mg/kg/injection, schedule: Q03HX024 (ip), vehicle: saline
  survivor count: 7 of 10
dose: 4.0 mg/kg/injection, schedule: Q04DX003 (ip), vehicle: saline
  T/C: 138 % of control
dose: 8.0 mg/kg/injection, schedule: Q01DX001 (ip), vehicle: saline
  T/C: 133 % of control
dose: 8.0 mg/kg/injection, schedule: Q01DX001 (iv), vehicle: saline
  T/C: 138 % of control
dose: 8.0 mg/kg/injection, schedule: Q01DX001 (sc), vehicle: saline
  T/C: 138 % of control
dose: 8.0 mg/kg/injection, schedule: Q01DX009 (oral), vehicle: saline, evaluated on day 30
  T/C: 145 % of control
dose: 8.0 mg/kg/injection, schedule: Q01DX009 (oral), vehicle: saline, evaluated on day 60
  T/C: 140 % of control
dose: 8.0 mg/kg/injection, schedule: Q03HX008 (ip), vehicle: saline
  survivor count: 0 of 10
dose: 8.0 mg/kg/injection, schedule: Q03HX016 (ip), vehicle: saline
  survivor count: 0 of 10
dose: 8.0 mg/kg/injection, schedule: Q03HX024 (ip), vehicle: saline
  survivor count: 0 of 10
dose: 12.0 mg/kg/injection, schedule: Q01DX009 (ip), vehicle: saline
  survivor count: 10 of 10
dose: 15.0 mg/kg/injection, schedule: Q01DX009 (ip), vehicle: saline
  survivor count: 5 of 6
dose: 15.0 mg/kg/injection, schedule: Q01DX009 (ip), vehicle: water
  survivor count: 3 of 6
dose: 16.0 mg/kg/injection, schedule: Q01DX001 (ip), vehicle: saline
  T/C: 133 % of control
dose: 16.0 mg/kg/injection, schedule: Q01DX001 (iv), vehicle: saline
  T/C: 133 % of control
dose: 16.0 mg/kg/injection, schedule: Q01DX001 (oral), vehicle: saline
  T/C: 133 % of control
dose: 16.0 mg/kg/injection, schedule: Q01DX001 (sc), vehicle: saline
  T/C: 133 % of control
dose: 16.0 mg/kg/injection, schedule: Q01DX006 (iv), vehicle: saline
  survivor count: 10 of 10
dose: 16.0 mg/kg/injection, schedule: Q01DX009 (ip), vehicle: saline
  survivor count: 9 of 10
dose: 16.0 mg/kg/injection, schedule: Q01DX009 (oral), vehicle: saline
  T/C: 125 % of control [8 of 10 alive]
dose: 16.0 mg/kg/injection, schedule: Q01DX009 (sc), vehicle: saline
  survivor count: 7 of 10
dose: 16.0 mg/kg/injection, schedule: Q03HX008 (ip), vehicle: saline
  survivor count: 0 of 10
dose: 16.0 mg/kg/injection, schedule: Q03HX016 (ip), vehicle: saline
  survivor count: 0 of 10
dose: 16.0 mg/kg/injection, schedule: Q03HX024 (ip), vehicle: saline
  survivor count: 0 of 10
dose: 24.0 mg/kg/injection, schedule: Q01DX009 (ip), vehicle: saline
  survivor count: 2 of 10
dose: 32.0 mg/kg/injection, schedule: Q01DX001 (ip), vehicle: saline
  survivor count: 6 of 10
dose: 32.0 mg/kg/injection, schedule: Q01DX001 (iv), vehicle: saline
  survivor count: 1 of 10
[1]
  T/C: 144 % of control [9 of 10 alive]
  survivor count: 5 of 10
dose: 32.0 mg/kg/injection, schedule: Q01DX001 (sc), vehicle: saline
  survivor count: 2 of 10
dose: 32.0 mg/kg/injection, schedule: Q01DX006 (iv), vehicle: saline
  survivor count: 0 of 10
dose: 32.0 mg/kg/injection, schedule: Q01DX009 (ip), vehicle: saline
  survivor count: 0 of 10 (2×)
dose: 32.0 mg/kg/injection, schedule: Q01DX009 (oral), vehicle: saline
  survivor count: 0 of 10 (2×)
dose: 32.0 mg/kg/injection, schedule: Q01DX009 (sc), vehicle: saline
  survivor count: 0 of 10 and 1 of 10
dose: 32.0 mg/kg/injection, schedule: Q04DX003 (ip), vehicle: saline
  survivor count: 10 of 10
dose: 48.0 mg/kg/injection, schedule: Q01DX009 (ip), vehicle: saline
  survivor count: 0 of 10
dose: 64.0 mg/kg/injection, schedule: Q01DX001 (ip), vehicle: saline
  survivor count: 0 of 10
dose: 64.0 mg/kg/injection, schedule: Q01DX001 (iv), vehicle: saline
  survivor count: 0 of 10
dose: 64.0 mg/kg/injection, schedule: Q01DX001 (oral), vehicle: saline
  survivor count: 1 of 10
dose: 64.0 mg/kg/injection, schedule: Q01DX001 (sc), vehicle: saline
  survivor count: 0 of 10
dose: 64.0 mg/kg/injection, schedule: Q01DX009 (oral), vehicle: saline
  survivor count: 0 of 10
dose: 64.0 mg/kg/injection, schedule: Q04DX003 (ip), vehicle: saline
  survivor count: 2 of 10
dose: 64.0 mg/kg/injection, schedule: Q08DX002 (ip), vehicle: saline
  survivor count: 0 of 10
dose: 128.0 mg/kg/injection, schedule: Q01DX001 (ip), vehicle: saline
  survivor count: 0 of 10
dose: 128.0 mg/kg/injection, schedule: Q01DX001 (iv), vehicle: saline
  survivor count: 0 of 10
dose: 128.0 mg/kg/injection, schedule: Q01DX001 (oral), vehicle: saline
  survivor count: 0 of 10
dose: 128.0 mg/kg/injection, schedule: Q01DX001 (sc), vehicle: saline
  survivor count: 0 of 10
dose: 128.0 mg/kg/injection, schedule: Q08DX002 (ip), vehicle: saline
  survivor count: 0 of 10
dose: 256.0 mg/kg/injection, schedule: Q01DX001 (oral), vehicle: saline
  survivor count: 0 of 10
dose: 1000.0 micrograms/kg/injection, schedule: Q03HX024 (ip), vehicle: saline
  T/C: 130 % of control
dose: 2000.0 micrograms/kg/injection, schedule: Q03HX024 (ip), vehicle: saline
  T/C: 140 % of control

## ClCC1CCN(CCc2ccccc2)CC1
dose: 200.0 mg/kg/injection, schedule: Q01DX009 (ip), vehicle: saline
  survivor count: 1 of 6
